According to the supplement of paper PMC10849652:
Some of the results follow.

Amino acid sequences for entries named in this document (tags omitted). A change or cut given only in a name is not applied to a line headed by its entry.
UniProt Q86X83, whole entry, looked up: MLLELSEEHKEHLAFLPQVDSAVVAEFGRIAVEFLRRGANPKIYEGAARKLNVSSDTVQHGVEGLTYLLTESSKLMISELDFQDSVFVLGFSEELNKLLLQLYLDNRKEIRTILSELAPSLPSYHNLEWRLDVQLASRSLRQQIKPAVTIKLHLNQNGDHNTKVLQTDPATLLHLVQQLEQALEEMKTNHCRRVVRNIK
UniProt Q96I36: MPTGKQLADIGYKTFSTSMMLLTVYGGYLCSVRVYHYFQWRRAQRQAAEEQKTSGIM
UniProt Q16630, whole entry, looked up: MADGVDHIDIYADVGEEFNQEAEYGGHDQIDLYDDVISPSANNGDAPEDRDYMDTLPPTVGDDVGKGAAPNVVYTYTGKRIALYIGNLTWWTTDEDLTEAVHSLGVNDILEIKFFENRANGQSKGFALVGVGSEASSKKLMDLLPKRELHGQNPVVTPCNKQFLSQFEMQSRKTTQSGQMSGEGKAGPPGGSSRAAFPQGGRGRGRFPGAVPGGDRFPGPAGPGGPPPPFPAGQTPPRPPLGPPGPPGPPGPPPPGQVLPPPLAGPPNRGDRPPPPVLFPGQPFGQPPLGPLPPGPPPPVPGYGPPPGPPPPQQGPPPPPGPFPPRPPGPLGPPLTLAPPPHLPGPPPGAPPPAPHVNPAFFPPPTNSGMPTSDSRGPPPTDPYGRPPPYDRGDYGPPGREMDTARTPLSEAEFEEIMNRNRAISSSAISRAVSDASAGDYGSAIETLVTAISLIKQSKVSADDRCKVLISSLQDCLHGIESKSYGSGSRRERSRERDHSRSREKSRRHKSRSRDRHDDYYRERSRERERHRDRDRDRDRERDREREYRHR
UniProt P12109: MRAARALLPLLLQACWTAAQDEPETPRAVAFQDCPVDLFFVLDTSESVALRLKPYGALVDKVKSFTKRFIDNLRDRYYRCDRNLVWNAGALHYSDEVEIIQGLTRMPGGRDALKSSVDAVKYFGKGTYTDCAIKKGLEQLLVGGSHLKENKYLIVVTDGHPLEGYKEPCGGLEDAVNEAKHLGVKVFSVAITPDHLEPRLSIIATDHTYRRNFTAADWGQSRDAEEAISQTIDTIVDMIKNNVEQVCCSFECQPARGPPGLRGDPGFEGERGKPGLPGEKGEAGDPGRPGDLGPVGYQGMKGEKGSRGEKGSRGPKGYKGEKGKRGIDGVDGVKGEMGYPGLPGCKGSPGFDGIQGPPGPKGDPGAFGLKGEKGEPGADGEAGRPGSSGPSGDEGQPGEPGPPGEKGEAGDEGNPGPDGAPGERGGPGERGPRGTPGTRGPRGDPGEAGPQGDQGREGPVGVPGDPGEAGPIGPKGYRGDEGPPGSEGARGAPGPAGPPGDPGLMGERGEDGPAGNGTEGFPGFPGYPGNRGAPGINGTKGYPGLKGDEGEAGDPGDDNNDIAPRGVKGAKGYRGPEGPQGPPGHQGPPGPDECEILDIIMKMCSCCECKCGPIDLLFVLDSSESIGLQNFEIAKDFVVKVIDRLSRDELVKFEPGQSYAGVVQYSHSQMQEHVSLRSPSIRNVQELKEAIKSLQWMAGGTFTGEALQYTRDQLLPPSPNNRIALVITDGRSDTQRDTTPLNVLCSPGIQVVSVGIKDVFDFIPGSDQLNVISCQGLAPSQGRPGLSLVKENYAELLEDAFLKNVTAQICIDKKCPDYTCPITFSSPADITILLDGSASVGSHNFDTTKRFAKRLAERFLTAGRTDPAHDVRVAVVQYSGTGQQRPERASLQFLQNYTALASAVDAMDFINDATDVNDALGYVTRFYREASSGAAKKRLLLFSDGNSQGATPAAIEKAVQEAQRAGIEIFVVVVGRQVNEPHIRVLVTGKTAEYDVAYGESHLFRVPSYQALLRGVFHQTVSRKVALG
UniProt Q6QEF8, whole entry, looked up: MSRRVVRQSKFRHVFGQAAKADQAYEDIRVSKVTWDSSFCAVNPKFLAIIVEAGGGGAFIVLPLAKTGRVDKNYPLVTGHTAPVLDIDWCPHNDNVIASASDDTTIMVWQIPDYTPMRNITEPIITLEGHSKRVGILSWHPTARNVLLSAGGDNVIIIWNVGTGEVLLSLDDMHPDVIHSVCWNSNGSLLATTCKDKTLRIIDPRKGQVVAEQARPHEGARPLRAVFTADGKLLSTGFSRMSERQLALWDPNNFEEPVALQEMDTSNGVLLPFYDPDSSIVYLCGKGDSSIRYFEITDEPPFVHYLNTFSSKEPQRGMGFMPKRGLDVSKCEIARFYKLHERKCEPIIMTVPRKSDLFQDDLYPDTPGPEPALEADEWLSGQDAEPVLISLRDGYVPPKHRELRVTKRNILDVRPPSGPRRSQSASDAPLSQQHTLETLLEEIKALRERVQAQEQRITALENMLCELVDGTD
UniProt Q8N668, whole entry, looked up: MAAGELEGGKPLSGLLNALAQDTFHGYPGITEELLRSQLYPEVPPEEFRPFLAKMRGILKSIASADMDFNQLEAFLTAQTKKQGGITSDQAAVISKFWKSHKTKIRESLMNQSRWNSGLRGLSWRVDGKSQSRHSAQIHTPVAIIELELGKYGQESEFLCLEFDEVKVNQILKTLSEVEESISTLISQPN
UniProt Q6UUV9: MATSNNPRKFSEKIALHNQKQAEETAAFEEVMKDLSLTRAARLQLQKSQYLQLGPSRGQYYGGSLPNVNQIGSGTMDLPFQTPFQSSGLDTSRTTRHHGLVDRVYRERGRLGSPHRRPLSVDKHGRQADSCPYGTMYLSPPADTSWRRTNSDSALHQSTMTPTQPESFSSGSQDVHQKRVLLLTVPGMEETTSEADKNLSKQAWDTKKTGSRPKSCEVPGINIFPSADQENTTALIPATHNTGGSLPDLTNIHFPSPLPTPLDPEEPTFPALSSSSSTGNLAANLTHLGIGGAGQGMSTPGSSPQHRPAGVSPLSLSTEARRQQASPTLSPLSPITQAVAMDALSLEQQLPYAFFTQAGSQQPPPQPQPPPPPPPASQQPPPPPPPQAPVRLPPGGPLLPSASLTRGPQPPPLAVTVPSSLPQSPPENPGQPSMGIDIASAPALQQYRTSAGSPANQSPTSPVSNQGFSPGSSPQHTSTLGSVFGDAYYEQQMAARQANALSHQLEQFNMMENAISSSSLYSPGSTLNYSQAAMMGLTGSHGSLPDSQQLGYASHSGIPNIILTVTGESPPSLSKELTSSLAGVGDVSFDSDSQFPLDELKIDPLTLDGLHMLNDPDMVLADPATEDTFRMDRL
UniProt Q9P2I0: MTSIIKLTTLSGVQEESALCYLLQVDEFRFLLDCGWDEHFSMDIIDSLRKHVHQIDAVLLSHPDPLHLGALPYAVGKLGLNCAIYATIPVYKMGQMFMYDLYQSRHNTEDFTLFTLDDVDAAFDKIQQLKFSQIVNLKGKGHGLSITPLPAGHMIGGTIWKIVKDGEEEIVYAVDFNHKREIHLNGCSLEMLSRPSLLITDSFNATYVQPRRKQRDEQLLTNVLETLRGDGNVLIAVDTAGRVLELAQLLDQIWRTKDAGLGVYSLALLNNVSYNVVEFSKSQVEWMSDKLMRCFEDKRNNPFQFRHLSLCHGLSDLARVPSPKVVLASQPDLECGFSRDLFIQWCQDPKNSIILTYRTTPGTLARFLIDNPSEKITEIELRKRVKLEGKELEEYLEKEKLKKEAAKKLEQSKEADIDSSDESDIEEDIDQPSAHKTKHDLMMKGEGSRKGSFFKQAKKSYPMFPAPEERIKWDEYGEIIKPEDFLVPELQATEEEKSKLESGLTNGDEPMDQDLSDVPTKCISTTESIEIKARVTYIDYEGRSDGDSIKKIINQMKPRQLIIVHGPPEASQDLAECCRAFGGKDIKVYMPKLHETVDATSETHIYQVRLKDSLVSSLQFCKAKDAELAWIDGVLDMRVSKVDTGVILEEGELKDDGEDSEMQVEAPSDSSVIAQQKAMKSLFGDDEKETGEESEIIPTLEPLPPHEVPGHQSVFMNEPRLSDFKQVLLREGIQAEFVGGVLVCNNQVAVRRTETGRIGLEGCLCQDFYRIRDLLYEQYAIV
UniProt Q17RY0: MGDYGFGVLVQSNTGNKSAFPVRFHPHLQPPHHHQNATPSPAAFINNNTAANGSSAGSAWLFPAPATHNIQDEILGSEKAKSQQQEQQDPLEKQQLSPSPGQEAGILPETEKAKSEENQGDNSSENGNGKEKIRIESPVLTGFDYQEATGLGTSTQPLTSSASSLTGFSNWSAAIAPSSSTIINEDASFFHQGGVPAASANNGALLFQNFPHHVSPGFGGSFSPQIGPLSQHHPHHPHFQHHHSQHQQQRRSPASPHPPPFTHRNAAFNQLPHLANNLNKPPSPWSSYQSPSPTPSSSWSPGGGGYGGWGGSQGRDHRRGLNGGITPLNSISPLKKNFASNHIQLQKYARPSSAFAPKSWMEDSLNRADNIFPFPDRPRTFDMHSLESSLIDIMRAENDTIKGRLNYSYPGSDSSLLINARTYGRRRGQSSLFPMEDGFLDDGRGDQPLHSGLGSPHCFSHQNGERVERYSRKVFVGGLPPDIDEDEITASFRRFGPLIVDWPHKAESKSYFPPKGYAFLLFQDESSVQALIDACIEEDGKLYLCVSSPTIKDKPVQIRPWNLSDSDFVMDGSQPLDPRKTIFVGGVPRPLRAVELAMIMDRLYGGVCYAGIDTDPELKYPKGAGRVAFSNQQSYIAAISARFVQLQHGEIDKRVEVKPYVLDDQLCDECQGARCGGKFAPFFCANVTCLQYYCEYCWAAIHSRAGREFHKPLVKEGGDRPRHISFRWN
UniProt Q14061: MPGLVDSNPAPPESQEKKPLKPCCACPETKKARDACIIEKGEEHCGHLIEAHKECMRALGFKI
UniProt Q53ET0: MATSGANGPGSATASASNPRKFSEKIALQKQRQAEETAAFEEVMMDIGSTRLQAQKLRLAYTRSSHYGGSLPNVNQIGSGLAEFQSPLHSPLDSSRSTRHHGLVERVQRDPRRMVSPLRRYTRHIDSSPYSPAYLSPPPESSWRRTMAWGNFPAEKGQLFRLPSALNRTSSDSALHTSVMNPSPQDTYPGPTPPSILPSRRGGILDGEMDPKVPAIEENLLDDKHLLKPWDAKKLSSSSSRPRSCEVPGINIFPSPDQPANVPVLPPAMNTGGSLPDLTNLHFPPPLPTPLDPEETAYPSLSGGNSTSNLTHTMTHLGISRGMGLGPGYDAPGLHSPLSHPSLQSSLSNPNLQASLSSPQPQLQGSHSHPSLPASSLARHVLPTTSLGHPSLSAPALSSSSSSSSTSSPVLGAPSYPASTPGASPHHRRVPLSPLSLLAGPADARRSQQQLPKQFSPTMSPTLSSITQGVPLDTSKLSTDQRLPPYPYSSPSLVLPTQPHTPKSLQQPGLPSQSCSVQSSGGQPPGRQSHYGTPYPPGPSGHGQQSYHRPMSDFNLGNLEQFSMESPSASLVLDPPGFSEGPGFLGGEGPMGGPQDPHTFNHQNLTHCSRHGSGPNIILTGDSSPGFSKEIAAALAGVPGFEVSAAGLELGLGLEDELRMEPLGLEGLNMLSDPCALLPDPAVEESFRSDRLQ
UniProt P10606, whole entry, looked up: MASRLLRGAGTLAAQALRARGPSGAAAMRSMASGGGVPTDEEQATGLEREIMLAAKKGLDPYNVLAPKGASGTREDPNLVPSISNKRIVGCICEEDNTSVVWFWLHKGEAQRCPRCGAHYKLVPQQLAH
UniProt Q9UNS2: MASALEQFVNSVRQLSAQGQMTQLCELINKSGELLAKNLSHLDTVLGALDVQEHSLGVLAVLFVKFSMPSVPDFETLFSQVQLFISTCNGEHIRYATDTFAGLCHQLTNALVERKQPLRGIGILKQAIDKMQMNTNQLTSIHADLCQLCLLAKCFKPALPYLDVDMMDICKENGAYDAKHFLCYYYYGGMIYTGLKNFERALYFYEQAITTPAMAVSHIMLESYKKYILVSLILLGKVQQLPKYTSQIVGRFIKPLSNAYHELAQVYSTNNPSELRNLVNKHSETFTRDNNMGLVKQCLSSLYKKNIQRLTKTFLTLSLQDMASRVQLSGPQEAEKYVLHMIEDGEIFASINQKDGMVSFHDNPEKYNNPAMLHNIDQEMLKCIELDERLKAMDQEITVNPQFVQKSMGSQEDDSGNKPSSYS
UniProt Q9Y646: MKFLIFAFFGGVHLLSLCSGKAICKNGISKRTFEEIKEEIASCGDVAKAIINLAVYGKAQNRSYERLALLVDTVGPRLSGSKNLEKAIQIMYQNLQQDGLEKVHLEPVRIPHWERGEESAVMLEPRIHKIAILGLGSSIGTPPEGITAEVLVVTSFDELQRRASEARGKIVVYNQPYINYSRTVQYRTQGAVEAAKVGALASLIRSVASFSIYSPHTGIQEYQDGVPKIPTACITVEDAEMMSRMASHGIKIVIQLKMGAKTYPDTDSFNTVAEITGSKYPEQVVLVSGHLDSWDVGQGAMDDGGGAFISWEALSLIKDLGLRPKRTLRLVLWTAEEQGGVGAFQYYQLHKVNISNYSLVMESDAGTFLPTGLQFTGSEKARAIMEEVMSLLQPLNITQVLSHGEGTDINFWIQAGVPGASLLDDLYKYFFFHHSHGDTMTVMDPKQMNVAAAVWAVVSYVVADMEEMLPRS

How the values were obtained:
Assay in all cases: log2 fold change, soluble protein after heating vs DMSO (PISA); higher = thermal stabilisation; K562 cells, 10 uM, 30 min; active = over 0.2 and 3.5 SD of the protein, either way, in both replicates (recomputed)
[1] = compound: CS(=O)(=O)c1ccc(-c2cnc(N)c(C(=O)Nc3ccccc3)n2)cc1
Outline: (§1)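 For each measurement, 10 μM compound was applied for 30 min to K562 cells at 2×10^6 cells/mL. Aliquots were heated for 3 min across 48°C-58°C, pooled, and extracted in PBS with 0.5% NP-40 at 4°C; the supernatant after 21,000xg for 90 min was soluble protein. This was quantified by TMTpro 16plex LC-MS/MS with channel sums equalised, and thermal stability was reported relative to control samples from duplicates, on a log2 fold-change scale.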

crizotinib = compound: C[C@@H](Oc1cc(-c2cnn(C3CCNCC3)c2)cnc1N)c1c(Cl)ccc(F)c1Cl [crizotinib]
Outline: as §1

[2] = compound: C[C@@H]1COCCN1C2=NC(=NC(=C2)C3(CC3)S(=O)(=O)C)C4=C5C=CNC5=CC=C4
Outline: as §1

[3] = compound: C[C@H](C1=CC=C(C=C1)C(=O)NC2=C3C=CNC3=NC=C2)N
Outline: as §1

gandotinib = compound: Cc1cc(Nc2cc(CN3CCOCC3)c3nc(C)c(Cc4ccc(Cl)cc4F)n3n2)n[nH]1 [gandotinib]
Outline: as §1

[4] = compound: Cc1cc(SCc2sc(-c3ccc(C(F)(F)F)cc3)nc2C)ccc1OCC(=O)O
Outline: as §1

doramapimod = compound: Cc1ccc(-n2nc(C(C)(C)C)cc2NC(=O)Nc2ccc(OCCN3CCOCC3)c3ccccc23)cc1 [doramapimod]
Outline: as §1

ispinesib = compound: Cc1ccc(C(=O)N(CCCN)[C@@H](c2nc3cc(Cl)ccc3c(=O)n2Cc2ccccc2)C(C)C)cc1 [ispinesib]
Outline: as §1

bafetinib = compound: Cc1ccc(NC(=O)c2ccc(CN3CC[C@H](N(C)C)C3)c(C(F)(F)F)c2)cc1Nc1nccc(-c2cncnc2)n1 [bafetinib]
Outline: as §1

[5] = compound: Cc1cccc(CC(=O)N2CCc3c2ccc(-c2cn(C)c4ncnc(N)c24)c3F)n1
Outline: as §1

nilotinib = compound: Cc1cn(-c2cc(NC(=O)c3ccc(C)c(Nc4nccc(-c5cccnc5)n4)c3)cc(C(F)(F)F)c2)cn1 [nilotinib]
Outline: as §1

[6] = compound: Cc1nc(Nc2n[nH]c3c2CN(C(=O)N[C@H](CN(C)C)c2ccccc2)C3(C)C)c2sccc2n1
Outline: as §1

dasatinib = compound: Cc1nc(Nc2ncc(C(=O)Nc3c(C)cccc3Cl)s2)cc(N2CCN(CCO)CC2)n1 [dasatinib]
Outline: as §1

[7] = compound: Cc1ncc(-c2ccnc(Nc3ccc(S(C)(=O)=O)cc3)n2)n1C(C)C
Outline: as §1

[8] = compound: Cn1cc(-c2ccc3c(c2)CCN3C(=O)Cc2cccc(C(F)(F)F)c2)c2c(N)ncnc21
Outline: as §1

[9] = compound: Cn1cc(-c2ccc3nnc(C(F)(F)c4ccc5ncccc5c4)n3n2)cn1
Outline: as §1

tipifarnib = compound: Cn1cncc1[C@@](N)(c1ccc(Cl)cc1)c1ccc2c(c1)c(-c1cccc(Cl)c1)cc(=O)n2C [tipifarnib]
Outline: as §1

mubritinib = compound: FC(F)(F)c1ccc(/C=C/c2nc(COc3ccc(CCCCn4ccnn4)cc3)co2)cc1 [mubritinib]
Outline: as §1

duvelisib = compound: C[C@H](Nc1ncnc2nc[nH]c12)c1cc2cccc(Cl)c2c(=O)n1-c1ccccc1 [duvelisib]
Outline: as §1

tozasertib = compound: Cc1cc(Nc2cc(N3CCN(C)CC3)nc(Sc3ccc(NC(=O)C4CC4)cc3)n2)n[nH]1 [tozasertib]
Outline: as §1

| Target | log2 fold change [1] | log2 fold change (crizotinib) | log2 fold change [2] | log2 fold change [3] | log2 fold change (gandotinib) | log2 fold change [4] | log2 fold change (doramapimod) | log2 fold change (ispinesib) | log2 fold change (bafetinib) | log2 fold change [5] | log2 fold change (nilotinib) | log2 fold change [6] | log2 fold change (dasatinib) | log2 fold change [7] | log2 fold change [8] | log2 fold change [9] | log2 fold change (tipifarnib) | log2 fold change (mubritinib) | log2 fold change (duvelisib) | log2 fold change (tozasertib) |
| --- | --- | --- | --- | --- | --- | --- | --- | --- | --- | --- | --- | --- | --- | --- | --- | --- | --- | --- | --- | --- |
| COMMD2 (UniProt Q86X83) | inactive: -0.048 | inactive: -0.13 | inactive: 0.102 | inactive: 0.037 | inactive: -0.029 | inactive: -0.018 | inactive: -0.012 | inactive: 0.014 | inactive: 0.162 | inactive: -0.066 | inactive: -0.132 | inactive: -0.069 | inactive: -0.177 | inactive: 0.097 | inactive: -0.099 | inactive: 0.057 | inactive: 0.025 | inactive: 0.101 |  |  |
| COX14 (UniProt Q96I36) | inactive: -0.055 | inactive: -0.006 | inactive: 0.119 | inactive: -0.118 | inactive: -0.291 |  | inactive: 0.022 |  | inactive: 0.064 | inactive: -0.177 | inactive: 0.081 | inactive: -0.057 |  | inactive: -0.106 | inactive: -0.064 |  | inactive: -0.043 |  |  |  |
| CPSF6 isoform 2 (UniProt Q16630) | inactive: -0.014 | inactive: -0.025 | inactive: 0.075 | active: -0.292 | inactive: -0.034 | inactive: -0.012 | inactive: 0.004 | inactive: 0.11 | inactive: 0.079 | inactive: -0.136 | inactive: 0.06 | active: -1.43 | inactive: 0.009 | inactive: 0.014 | inactive: 0.039 | inactive: -0.008 | inactive: 0.031 | inactive: 0.006 |  |  |
| COL6A1 (UniProt P12109) | inactive: -0.051 | inactive: 0.085 |  | inactive: 0.103 | inactive: 0.124 | inactive: -0.085 | inactive: 0.047 | inactive: -0.098 | inactive: -0.023 | inactive: -0.249 | inactive: -0.212 | inactive: -0.423 | inactive: 0.029 | inactive: 0.178 | inactive: 0.151 | inactive: -0.166 | inactive: 0.172 | inactive: -0.213 | inactive: -0.141 | inactive: 0.066 |
| CORO6 isoform 5 (UniProt Q6QEF8) | inactive: 0.091 | inactive: 0.021 | inactive: 0.028 |  |  |  | inactive: -0.031 |  |  |  |  |  |  |  |  |  |  |  |  | inactive: -0.165 |
| COMMD1 (UniProt Q8N668) | inactive: -0.108 | inactive: -0.022 | inactive: -0.092 |  | active: 0.42 |  | inactive: 0.009 | inactive: -0.112 | inactive: -0.162 | inactive: -0.085 | inactive: 0.009 | inactive: -0.179 |  | inactive: -0.057 |  | inactive: -0.087 | inactive: -0.016 | inactive: -0.069 |  |  |
| COPS8 (UniProt Q99627) | inactive: -0.017 | inactive: 0.07 | inactive: 0.13 | inactive: -0.148 | inactive: 0.048 | inactive: 0.054 | inactive: 0.107 | inactive: 0.05 | inactive: -0.021 | inactive: 0.025 | inactive: 0.018 | inactive: -0.008 | inactive: 0.006 | inactive: 0.007 | inactive: 0.107 | inactive: 0.146 | inactive: -0.017 | inactive: 0.025 |  |  |
| CSNK1A1 (UniProt P48729) | inactive: -0.093 | inactive: -0.115 | inactive: -0.114 | inactive: -0.073 | inactive: 0.014 | inactive: 0.017 | inactive: 0.024 | inactive: -0.125 | inactive: -0.044 | inactive: -0.156 | inactive: -0.106 | inactive: -0.008 | inactive: 0.011 | inactive: 0.033 | inactive: -0.118 | inactive: -0.055 | inactive: 0.022 | inactive: -0.086 |  |  |
| CRTC1 isoform 2 (UniProt Q6UUV9) | inactive: -0.068 | inactive: -0.016 | inactive: 0.192 |  | inactive: 0.008 | inactive: -0.076 | inactive: 0.005 | inactive: -0.11 | inactive: 0.021 | inactive: -0.093 |  |  | inactive: -0.034 |  |  | inactive: -0.079 | inactive: -0.267 |  |  |  |
| CSE1L (UniProt P55060) | inactive: 0.008 | inactive: -0.063 | inactive: 0.083 | inactive: -0.067 | inactive: -0.174 | inactive: 0.024 | inactive: -0.027 | inactive: -0.003 | inactive: -0.041 | inactive: 0.039 | inactive: -0.066 | inactive: -0.026 | inactive: -0.08 | inactive: 0.012 | inactive: -0.005 | inactive: 0.007 | inactive: -0.101 | inactive: 0.068 |  |  |
| CPSF2 (UniProt Q9P2I0) | inactive: 0.046 | inactive: -0.264 | inactive: 0.086 |  | inactive: -0.097 | inactive: 0.087 | inactive: 0.057 | inactive: -0.093 | inactive: 0.043 | inactive: 0.032 | inactive: -0.143 | inactive: -0.041 | inactive: -0.056 | inactive: 0.093 |  | inactive: 0.006 | inactive: 0.042 | inactive: 0.166 | inactive: -0.008 | inactive: 0.063 |
| CPEB4 (UniProt Q17RY0) | inactive: 0.033 | inactive: -0.145 |  | inactive: 0.068 | inactive: 0.278 | inactive: -0.019 | inactive: 0.057 | inactive: -0.132 | inactive: -0.047 | inactive: -0.118 |  |  | inactive: -0.006 |  | inactive: 0.043 | inactive: -0.015 | inactive: -0.04 | inactive: 0.079 | inactive: 0.01 | inactive: -0.093 |
| COX17 (UniProt Q14061) | inactive: 0.026 | inactive: 0.164 | inactive: 0.206 | inactive: -0.072 | inactive: -0.11 | inactive: -0.021 | inactive: -0.037 | inactive: 0.137 |  | inactive: 0.078 | inactive: -0.091 | inactive: -0.051 | inactive: 0.016 | inactive: -0.162 | inactive: 0.206 | inactive: -0.034 |  | inactive: 0.038 |  |  |
| CRTC2 (UniProt Q53ET0) | inactive: -0.02 | inactive: -0.077 | inactive: 0.08 |  |  |  | inactive: 0.062 | inactive: 0.012 | inactive: -0.035 |  | inactive: 0.038 | inactive: 0.01 |  | inactive: -0.094 |  | inactive: -0.081 | inactive: -0.092 | inactive: 0.022 |  |  |
| CRYM-AS1 (UniProt A6NIL9) | inactive: 0.2 | inactive: -0.077 | inactive: -0.132 | inactive: -0.08 | inactive: -0.299 | inactive: -0.024 | inactive: -0.144 | inactive: 0.022 | inactive: 0.063 | inactive: 0.048 | inactive: -0.023 | inactive: -0.426 | inactive: -0.108 | inactive: -0.28 | inactive: -0.015 | inactive: -0.189 |  | inactive: 0.114 |  |  |
| COX5B (UniProt P10606) | inactive: -0.07 | inactive: 0.186 | inactive: 0.081 | inactive: -0.169 | inactive: 0.218 | inactive: -0.001 | inactive: 0.022 | inactive: 0.265 | inactive: -0.032 | inactive: 0.013 | inactive: 0.026 | inactive: 0.011 | inactive: 0.105 | inactive: -0.043 | inactive: 0.134 | inactive: 0.221 | inactive: -0.108 | inactive: 0.024 |  |  |
| COPS3 (UniProt Q9UNS2) | inactive: 0.018 | inactive: 0.003 | inactive: 0.047 | inactive: -0.023 | inactive: -0.087 | inactive: -0.006 | inactive: -0.015 | inactive: 0.024 | inactive: -0.05 | inactive: -0.027 | inactive: 0.006 | inactive: 0.004 | inactive: -0.02 | inactive: -0.012 | inactive: 0.014 | inactive: 0.04 | inactive: 0.004 | inactive: 0.023 |  |  |
| CPD (UniProt O75976) | inactive: 0 | active: -0.294 | inactive: 0.002 | inactive: 0.019 | inactive: 0.033 | inactive: -0.01 | inactive: 0.028 | inactive: -0.174 | inactive: -0.07 | inactive: 0.01 | inactive: -0.007 | inactive: -0.033 | inactive: 0.026 | inactive: -0.029 | inactive: -0.029 | inactive: 0.026 | inactive: 0.055 | inactive: -0.009 |  |  |
| CPQ (UniProt Q9Y646) | inactive: -0.013 | inactive: -0.023 | inactive: -0.001 | inactive: 0.049 | inactive: 0.055 | inactive: -0.058 | inactive: 0.03 | inactive: 0.011 | active: -0.207 | inactive: 0 | inactive: 0.017 | inactive: 0.053 | inactive: 0.069 | inactive: -0.046 | inactive: 0.012 | inactive: -0.025 | inactive: 0.031 | inactive: 0.044 |  |  |
| COPS4 (UniProt Q9BT78) | inactive: -0.01 | inactive: 0.112 | inactive: 0.064 | inactive: -0.064 | inactive: 0.022 | inactive: 0.002 | inactive: -0.014 | inactive: 0.086 | inactive: 0.003 | inactive: 0 | inactive: 0 | inactive: -0.01 | inactive: -0.023 | inactive: 0.007 | inactive: 0.031 | inactive: 0.003 | inactive: -0.012 | inactive: 0.031 |  |  |
